Some entries share one result that the patent states for a list of compounds.
Assay: Transmission electron microscopy of cyclodextrin vesicles (uranyl acetate negative staining)
Format: physicochemical
Description: The amphiphilic cyclodextrins are dispersed in water by sonication of a thin film (cast by slow rotary evaporation of a solution of the cyclodextrins in chloroform) in a sonication bath. HE-SC12 is sonicated for 2 hours at room temperature and HE-SC16 is sonicated for 2 hours at 50° C. Dynamic light scattering indicates the presence of vesicles with an average diameter of 170 nm. Vesicles of cyclodextrins of 50-300 nm diameter are also observed by transmission electron microscopy using uranyl acetate as a negative staining agent (FIG. 1). Upon prolonged sonication (9 hours) of a solution of HE-SC12, a monodisperse solution of spherical vesicles with an average diameter of 60 nm is obtained (FIG. 2). Thus, the particle size can be directed by sonication time, in order to obtain a size suitable for specific molecular inclusion or specific therapeutic use.

With “heptakis(6-dodecylthio-2-oligoethylenoxy)-β-cyclodextrin [HE-SC12]” the “diameter of vesicles observed by transmission electron microscopy” value was 50-300 nm.

In the case of “heptakis(6-hexadecylthio-2-oligoethylenoxy)-β-cyclodextrin [HE-SC16]”, the “diameter of vesicles observed by transmission electron microscopy” value was 50-300 nm.

Source: patent US7786095B2, “Amphiphilic macrocyclic derivatives and their analogues” (University College Dublin, priority 2000, dated 2010)
